# The whole screen tested about 330,000 compounds, of which about 7,700 (2.3%) were called active. This list was built around the results that the source calls inconclusive (neither active nor inactive); the mix of calls is not that of the screen. Calls follow the shape of the dose curve; as a rule, active = well fitted inhibition curve with a large enough effect; inconclusive = small, poorly fitted or top-dose-only effect, or effect the other way; inactive = flat fitted curve, though single readings scatter. Where the call is inconclusive, the potency comes from a doubtful curve fit.
# Assay: qHTS screen for small molecules that inhibit ELG1-dependent DNA repair in human embryonic kidney (HEK293T) cells expressing luciferase-tagged ELG1; also: nearly all actives have a fitted effect of over 55% in size
# Details: HEK293T ELG1-luciferase reporter, luminescence, 16 h, DNA damage induced by 5-fluorouridine; activity change, negative = inhibition: at 46.1 µM (top of the series)
# Outline: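 DMSO vehicle served as the neutral condition. Each well held 2,000 cells given 5-fluorouridine plus compound; after 16 hr at 37 °C/5% CO2, ONE-Glo was added and luciferase measured 30 min later.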
# % is scaled to controls: 0 for no effect and ±100 for the full control effect; potency is read from the fitted curve at half-maximal effect.
Structure (SMILES),Potency,"activity change, negative = inhibition"
O=C(Cc1ccc(-n2c(=O)[nH]c3ccccc3c2=O)cc1)N1CCN(c2ccccc2)CC1,"inconclusive: 25.9 µM [inhibitor, single point]",–
Cc1c(C(=O)OCC(=O)N2CCCC2)cccc1[N+](=O)[O-],"inconclusive: 18.3 µM [activator, partial curve, poor fit]",–
Cc1ccc(Cl)cc1NC(=O)NCc1ccccn1,–,inactive: -0.232%
CCC(C)(C)C1CCC2(CC1)NC(=O)N(CC(=O)NCCOc1ccccc1)C2=O (stereo unspecified),–,inactive: -15.5%
CN(CC(=O)Nc1ccc(F)c(F)c1F)C(=O)c1cc(-c2ccncc2)nc2ccccc12,active: 23.1 µM,–
Cc1nc(NC(=O)c2ccccc2)sc1-c1csc(NCc2ccco2)n1,active: 14.6 µM,–
N#Cc1cccc(S(=O)(=O)NCC(=O)OCC(=O)NCc2ccccc2)c1,–,inactive: 22.6%
O=C(Nc1ccc(NC(=O)c2cccs2)cc1)c1cccs1,"inconclusive: 18.3 µM [activator, partial curve]",–
O=C(c1cc(-c2ccncc2)nc2ccccc12)N1CCOCC1,–,inconclusive: 7.22% [activator]
COc1ccccc1-n1cnc2cc(NCc3ccccn3)ccc21,"inconclusive: 28.2 µM [activator, partial curve, poor fit]",–
O=C(Nc1nc2c(s1)COc1ccccc1-2)c1cccs1,–,inactive: -16.5%
Cc1ccc(S(=O)(=O)Nc2ccccc2CNC2CCCCC2)cc1,–,inactive: 1.02%
CCCCN(C(=O)CSCC(=O)Nc1ccc(OC)cc1)c1c(N)n(Cc2ccccc2)c(=O)[nH]c1=O,–,inactive: -9.6%
COC(=O)C1=C(C)OC(N)=C(C#N)C1c1c(C)nn(C)c1C (stereo unspecified),–,inactive: -1.85%
COc1ccc(N(CC(=O)Nc2cccc(N(C)S(C)(=O)=O)c2)S(=O)(=O)c2ccccc2)cc1Cl,active: 8.2 µM,–
Cc1n(Cc2ccccc2)c2ccccc2[n+]1Cc1ccccc1,"inconclusive: 11.6 µM [inhibitor, partial curve, poor fit]",–
Cc1nn(-c2ccc(Cl)cc2)c(NC(=O)C(C)C)c(-c2ccccc2)c1=O,–,inactive: 6.92%
O=C(COC(=O)CNC(=O)c1ccccc1F)NC1CC1,–,inactive: 8.02%
CN1CCN(S(=O)(=O)c2ccc(NC(=O)c3ccccc3Cl)cc2)CC1,–,inactive: 2.5%
CCOc1ccc(CCNC(=O)CN2C(=O)c3cccnc3Oc3ccc(C)cc32)cc1OCC,"inconclusive: 29.1 µM [inhibitor, single point]",–
Cc1c(C(=O)Nc2ccc(S(=O)(=O)Nc3ncccn3)cc2)oc2ccc(Cl)cc12,–,inactive: 0.205%
Cn1c(Cn2c(=O)sc3ccccc32)nnc1SCC(=O)NCCc1ccccc1,–,inactive: 0.797%
O=C(COc1ccc(Cl)cc1Cl)Nc1ccc(Cl)cn1,"inconclusive: 0.92 µM [activator, partial curve]",–

Structure (SMILES),Potency,"activity change, negative = inhibition"
O=C(NCCNC(=O)c1cc(OCC(F)(F)F)ccc1OCC(F)(F)F)Nc1ccc(Cl)cc1,–,inactive: -5.05%
CCc1ccc(-c2nc(SCC(=O)NC3CC3)n[nH]2)cc1,"inconclusive: 4.61 µM [activator, single point]",–
O=C(Cn1cnc(S(=O)(=O)N2CCOCC2)c1)Nc1ccc(OC(F)(F)F)cc1,–,inactive: 1.58%
COC(=O)c1ccc(C(NC(=O)OCc2ccccc2)/C(C)=C/[C@@H](C)C(=O)NCc2ccc(OC)c(OC)c2)cc1 (stereo partly specified),"inconclusive: 20.6 µM [inhibitor, single point]",–
CN(CCc1ccccc1)C(=O)c1cccc(NC(=O)Cc2ccc([N+](=O)[O-])cc2)c1,active: 13 µM,–
Cc1c(C(=O)N(C)CCC#N)oc2ccc(S(=O)(=O)N3CC(C)CC(C)C3)cc12 (stereo unspecified),active: 7.3 µM,–
Cc1cnc(NC(=O)c2sc(Nc3ccccc3)nc2N)o1,"inconclusive: 20.6 µM [activator, partial curve]",–
COc1ccc(NC(=O)c2sc3nc(Cc4ccccc4)cc(C(F)(F)F)c3c2N)cc1OC,"inconclusive: 29.1 µM [inhibitor, single point]",–
CCc1c(C(=O)Nc2ccc(C)c(C)c2)[nH]c(C)c1C(C)=O,"inconclusive: 16.4 µM [activator, partial curve]",–
CC(=O)N1CCC(=NNc2ccc(S(N)(=O)=O)cc2[N+](=O)[O-])CC1,"inconclusive: 18.3 µM [activator, single point]",–
COc1cc(/C=C(\C#N)c2nc3ccccc3n2C)cc(OC)c1O,"inconclusive: 29.1 µM [inhibitor, single point]",–
NC(=O)c1ccc(NC(=O)CC23CC4CC(CC(Br)(C4)C2)C3)cc1,–,inactive: 1.55%
Cc1ccc(N(CC(=O)NCCSc2nc3ccccc3s2)S(=O)(=O)c2ccccc2)c(C)c1,"inconclusive: 25.9 µM [inhibitor, single point]",–
N#Cc1ccccc1CSc1nc2ccsc2c(=O)n1Cc1ccccn1,"inconclusive: 20.6 µM [activator, single point]",–
COc1ccccc1N1CCN(C(=O)c2ccc(NS(=O)(=O)c3ccc(C)cc3)cc2)CC1,"inconclusive: 32.6 µM [inhibitor, partial curve, poor fit]",–
O=C(c1nc[nH]c1C(=O)N1CCc2ccccc2C1)N1CCc2ccccc2C1,"inconclusive: 0.82 µM [activator, partial curve, poor fit]",–
O=C(c1cccs1)N1CCC(c2nc3c(nnn3Cc3cccc(Cl)c3)c(=O)[nH]2)CC1,"inconclusive: 25.9 µM [inhibitor, partial curve, poor fit]",–
CC(C)NC(=O)NC(=O)CSc1ccc(S(=O)(=O)N2CCOCC2)cn1,–,inactive: 15.9%
N#C/C(=C/c1ccccc1)c1nn(CCO)c(N)c1C#N,"inconclusive: 18.4 µM [activator, single point]",–
COc1ccc(NC(=O)C2CCCN(S(=O)(=O)c3ccc(C)cc3)C2)cc1OC (stereo unspecified),"inconclusive: 23.1 µM [inhibitor, single point]",–
CNS(=O)(=O)c1cc(Br)ccc1S(=O)c1ccccc1C(=O)O (stereo unspecified),–,inactive: -6.4%
COc1ccc(S(=O)(=O)N2CCC(C(=O)Nc3cccc(C(C)=O)c3)CC2)cc1C,"inconclusive: 20.6 µM [inhibitor, single point]",–
COc1cc(OC)cc(-c2cc3cc4c(cc3cn2)OCO4)c1,"inconclusive: 4.61 µM [activator, partial curve]",–

# Arranged by length of the SMILES (largest number first): 12 of the compounds above
Structure (SMILES),Potency,"activity change, negative = inhibition"
COc1ccc(N(CC(=O)Nc2cccc(N(C)S(C)(=O)=O)c2)S(=O)(=O)c2ccccc2)cc1Cl,active: 8.2 µM,–
O=C(Cc1ccc(-n2c(=O)[nH]c3ccccc3c2=O)cc1)N1CCN(c2ccccc2)CC1,"inconclusive: 25.9 µM [inhibitor, single point]",–
Cc1ccc(N(CC(=O)NCCSc2nc3ccccc3s2)S(=O)(=O)c2ccccc2)c(C)c1,"inconclusive: 25.9 µM [inhibitor, single point]",–
COc1ccccc1N1CCN(C(=O)c2ccc(NS(=O)(=O)c3ccc(C)cc3)cc2)CC1,"inconclusive: 32.6 µM [inhibitor, partial curve, poor fit]",–
Cc1c(C(=O)N(C)CCC#N)oc2ccc(S(=O)(=O)N3CC(C)CC(C)C3)cc12 (stereo unspecified),active: 7.3 µM,–
Cc1c(C(=O)Nc2ccc(S(=O)(=O)Nc3ncccn3)cc2)oc2ccc(Cl)cc12,–,inactive: 0.205%
CCOc1ccc(CCNC(=O)CN2C(=O)c3cccnc3Oc3ccc(C)cc32)cc1OCC,"inconclusive: 29.1 µM [inhibitor, single point]",–
Cc1nn(-c2ccc(Cl)cc2)c(NC(=O)C(C)C)c(-c2ccccc2)c1=O,–,inactive: 6.92%
CN1CCN(S(=O)(=O)c2ccc(NC(=O)c3ccccc3Cl)cc2)CC1,–,inactive: 2.5%
Cc1ccc(S(=O)(=O)Nc2ccccc2CNC2CCCCC2)cc1,–,inactive: 1.02%
Cc1cnc(NC(=O)c2sc(Nc3ccccc3)nc2N)o1,"inconclusive: 20.6 µM [activator, partial curve]",–
O=C(COC(=O)CNC(=O)c1ccccc1F)NC1CC1,–,inactive: 8.02%
